The entries are a selection whose mix differs from that of the whole data set. At the low end of the ranking the order means little.

The text below walks through data of paper PMC7862700.

Common to all, as to experiment: DAPPL (digital affinity profiling via proximity ligation, sequencing)
Settings in all cases: 10 mM Tris-HCl pH 7.5, 50 mM NaCl, 1 mM DTT, 4% glycerol, room temperature, 30 min; GST-TFs on glutathione beads, 16-mer random dsDNA library, 0.1% …; high values mean tight binding; double strand, one strand shown; scale: fold enrichment (6-mer frequency, TF over GST control)

One experiment addresses T1, ELK1 (UniProt P19419).
T1 sequence: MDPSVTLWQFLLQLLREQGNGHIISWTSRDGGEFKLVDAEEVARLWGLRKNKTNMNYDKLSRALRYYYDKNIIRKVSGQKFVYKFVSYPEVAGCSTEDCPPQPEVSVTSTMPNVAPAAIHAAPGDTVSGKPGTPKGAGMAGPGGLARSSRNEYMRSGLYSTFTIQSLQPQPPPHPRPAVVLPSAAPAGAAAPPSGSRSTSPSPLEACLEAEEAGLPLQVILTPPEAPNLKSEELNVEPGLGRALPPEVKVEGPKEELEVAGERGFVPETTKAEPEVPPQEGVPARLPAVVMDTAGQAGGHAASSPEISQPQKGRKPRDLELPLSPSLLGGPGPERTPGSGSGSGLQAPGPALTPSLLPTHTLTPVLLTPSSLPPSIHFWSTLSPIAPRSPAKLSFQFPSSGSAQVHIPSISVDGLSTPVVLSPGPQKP

The next experiment has as its target T2, ELK3 (UniProt P41970).
T2 sequence: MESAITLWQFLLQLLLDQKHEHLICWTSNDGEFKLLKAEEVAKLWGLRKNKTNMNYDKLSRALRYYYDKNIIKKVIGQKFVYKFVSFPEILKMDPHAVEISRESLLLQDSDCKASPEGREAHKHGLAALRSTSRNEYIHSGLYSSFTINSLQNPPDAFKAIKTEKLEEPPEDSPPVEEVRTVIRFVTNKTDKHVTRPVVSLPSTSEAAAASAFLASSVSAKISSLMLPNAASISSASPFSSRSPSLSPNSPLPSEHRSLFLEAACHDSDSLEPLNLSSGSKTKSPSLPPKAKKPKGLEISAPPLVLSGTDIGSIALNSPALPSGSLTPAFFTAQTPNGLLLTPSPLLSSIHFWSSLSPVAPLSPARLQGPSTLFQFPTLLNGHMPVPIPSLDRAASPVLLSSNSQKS

Another experiment has as its target T3, SPIC (UniProt Q8N5J4).
T3 sequence: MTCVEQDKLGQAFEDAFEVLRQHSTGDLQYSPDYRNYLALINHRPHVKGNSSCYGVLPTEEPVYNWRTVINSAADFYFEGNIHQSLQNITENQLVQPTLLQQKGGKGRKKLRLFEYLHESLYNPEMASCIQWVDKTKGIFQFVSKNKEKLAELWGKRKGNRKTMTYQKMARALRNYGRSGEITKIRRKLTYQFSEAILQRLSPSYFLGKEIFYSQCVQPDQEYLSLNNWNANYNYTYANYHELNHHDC

For another experiment, the target named is T4, ETS2 (UniProt P15036).
T4 sequence: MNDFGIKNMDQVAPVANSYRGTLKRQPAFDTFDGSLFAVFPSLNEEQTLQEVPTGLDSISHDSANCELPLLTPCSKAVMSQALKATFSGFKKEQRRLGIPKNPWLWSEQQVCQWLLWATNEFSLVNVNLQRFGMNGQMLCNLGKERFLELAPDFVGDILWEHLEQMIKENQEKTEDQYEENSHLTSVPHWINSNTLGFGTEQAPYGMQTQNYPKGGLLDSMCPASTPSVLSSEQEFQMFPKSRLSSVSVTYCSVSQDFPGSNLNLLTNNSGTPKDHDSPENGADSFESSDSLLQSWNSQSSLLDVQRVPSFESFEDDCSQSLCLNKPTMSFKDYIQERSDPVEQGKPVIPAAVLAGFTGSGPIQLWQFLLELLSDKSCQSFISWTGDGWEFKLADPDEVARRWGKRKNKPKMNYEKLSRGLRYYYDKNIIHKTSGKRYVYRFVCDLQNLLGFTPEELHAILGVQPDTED

A further experiment has as its target T5, ETV3 (UniProt P41162-2).
T5 sequence: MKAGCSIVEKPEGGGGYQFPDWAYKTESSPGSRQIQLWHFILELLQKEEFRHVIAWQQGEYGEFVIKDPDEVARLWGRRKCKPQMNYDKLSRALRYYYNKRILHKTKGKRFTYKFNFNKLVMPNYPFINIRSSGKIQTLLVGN

On to AGACAG, for which the binding signal stood at 0.515 in the experiment with ELK1; 0.496 with ELK3; 0.47 with SPIC; 0.534 in the experiment with ETS2; 0.49 with ETV3.

As to GGAACG, the binding signal was found to be 0.651 with ELK1; 0.632 with ELK3; 0.649 in the experiment with SPIC; 0.589 with ETS2; 0.656 with ETV3.

As for ACAGGT, the binding signal stood at 0.828 with ELK1; 0.729 in the experiment with ELK3; 0.796 in the experiment with SPIC; 0.696 with ETS2; 0.793 in the experiment with ETV3.

On to CCAGTT, for which the binding signal stood at 0.631 with ELK1; 0.63 with ELK3; 0.631 with SPIC; 0.625 with ETS2; 0.658 with ETV3.

On to AGATAC, for which the binding signal with ELK1 stood at 0.882; in the experiment with ELK3, 0.813; in the experiment with SPIC, 1.05; with ETS2, 0.885; with ETV3, 0.936.

Regarding GTGCGA, the binding signal with ELK1 turned out to be 0.886; in the experiment with ELK3, 0.906; with SPIC it was 0.824; with ETS2 it was 0.847; in the experiment with ETV3 it was 0.921.

For GCATGG, the binding signal with ELK1 came out at 0.885; with ELK3 it was 0.892; with SPIC it was 0.886; in the experiment with ETS2, 0.863; with ETV3, 0.86.

As to GGTTGG, the binding signal with ELK1 stood at 0.845; in the experiment with ELK3 it was 0.757; with SPIC, 0.779; in the experiment with ETS2, 0.759; with ETV3 it was 0.725.

Regarding GGCGAA, the binding signal with ELK1 turned out to be 0.747; with ELK3, 0.71; in the experiment with SPIC it was 0.757; with ETS2, 0.788; with ETV3, 0.62.

Regarding GTCATC, the binding signal stood at 0.852 with ELK1; 0.859 in the experiment with ELK3; 0.87 with SPIC; 0.826 in the experiment with ETS2; 0.855 with ETV3.

Turning to TGTGAG, the binding signal turned out to be 0.363 with ELK1; 0.313 with ELK3; 0.367 with SPIC; 0.34 with ETS2; 0.337 in the experiment with ETV3.

In the case of ACGAGT, the binding signal with ELK1 is 0.743; with ELK3 it was 0.859; with SPIC, 0.716; with ETS2, 0.732; in the experiment with ETV3 it was 0.696.

On to GCTGTC, for which the binding signal with ELK1 amounted to 0.9; with ELK3, 0.757; with SPIC it was 0.984; with ETS2, 0.886; in the experiment with ETV3, 0.966.

On to AAGAGG, for which the binding signal with ELK1 is 0.842; in the experiment with ELK3, 0.911; with SPIC it was 0.932; with ETS2, 0.89; in the experiment with ETV3, 0.878.

Consider GCGCCA, for which the binding signal in the experiment with ELK1 was found to be 0.707; with ELK3, 0.76; with SPIC, 0.781; in the experiment with ETS2, 0.761; with ETV3 it was 0.709.

Regarding CGAGGC, the binding signal worked out at 0.65 with ELK1; 0.573 with ELK3; 0.622 with SPIC; 0.712 in the experiment with ETS2; 0.668 with ETV3.

Turning to GGCGGG, the binding signal in the experiment with ELK1 is 0.307; with ELK3 it was 0.321; with SPIC, 0.295; with ETS2 it was 0.299; in the experiment with ETV3 it was 0.307.

For the sequence ACGTCG, the binding signal was 0.677 with ELK1; 0.622 with ELK3; 0.538 with SPIC; 0.628 in the experiment with ETS2; 0.649 in the experiment with ETV3.

On to CGGAGC, for which the binding signal was determined as 0.404 with ELK1; 0.38 with ELK3; 0.335 in the experiment with SPIC; 0.359 in the experiment with ETS2; 0.382 in the experiment with ETV3.

For the sequence GGGAAC, the binding signal with ELK1 was 0.755; with ELK3 it was 0.666; with SPIC, 0.802; with ETS2 it was 0.692; with ETV3, 0.68.

Consider TCGGGG, for which the binding signal in the experiment with ELK1 amounted to 0.414; with ELK3, 0.405; in the experiment with SPIC, 0.371; in the experiment with ETS2, 0.38; with ETV3 it was 0.388.

On to GGGACA, for which the binding signal was 0.719 with ELK1; 0.658 with ELK3; 0.732 with SPIC; 0.654 with ETS2; 0.675 with ETV3.

With GTGCAA, the binding signal worked out at 0.919 with ELK1; 0.965 with ELK3; 0.882 with SPIC; 0.935 with ETS2; 0.967 in the experiment with ETV3.

On to TCGGTG, for which the binding signal in the experiment with ELK1 came out at 0.497; with ELK3, 0.51; with SPIC, 0.442; with ETS2 it was 0.567; in the experiment with ETV3 it was 0.503.

Regarding GGAGGC, the binding signal is 0.23 with ELK1; 0.265 with ELK3; 0.245 in the experiment with SPIC; 0.245 in the experiment with ETS2; 0.258 with ETV3.

On to GGGCGA, for which the binding signal was 0.867 with ELK1; 0.825 in the experiment with ELK3; 0.821 with SPIC; 0.784 with ETS2; 0.742 in the experiment with ETV3.

As for GAGTAA, the binding signal with ELK1 came out at 0.572; with ELK3 it was 0.65; with SPIC it was 0.556; with ETS2 it was 0.572; with ETV3, 0.537.

Turning to AGCCGT, the binding signal in the experiment with ELK1 was 0.497; in the experiment with ELK3 it was 0.425; in the experiment with SPIC, 0.434; in the experiment with ETS2, 0.464; with ETV3 it was 0.489.

For GGAGAC, the binding signal was 0.149 with ELK1; 0.157 with ELK3; 0.158 with SPIC; 0.163 with ETS2; 0.157 in the experiment with ETV3.

For the sequence AGGCGA, the binding signal with ELK1 was found to be 0.593; with ELK3, 0.515; in the experiment with SPIC, 0.607; with ETS2, 0.56; in the experiment with ETV3 it was 0.498.

Regarding ATCAGG, the binding signal in the experiment with ELK1 is 0.981; with ELK3, 0.849; in the experiment with SPIC, 0.864; with ETS2, 0.98; with ETV3, 0.945.

Turning to GAGGAG, the binding signal with ELK1 is 0.212; with ELK3 it was 0.26; with SPIC it was 0.232; in the experiment with ETS2 it was 0.208; in the experiment with ETV3, 0.217.

In the case of CCGTGA, the binding signal with ELK1 worked out at 0.184; in the experiment with ELK3 it was 0.179; with SPIC it was 0.182; with ETS2 it was 0.188; with ETV3, 0.195.
